Experimental data: patent publication US20260007749A1
Residue numbers refer to the chain shown, from its start. Names and notes keep the numbering of the source. No constants are given. Whether binding was seen depends on the method and setting. Some binding calls cover weakened binding; strength is not graded here. Each block holds one binder with its values, some of them ahead of it.

Sequences of proteins named here, by UniProt entry; tags and fusion partners are left off. A change or cut given only in a name is not applied to a line headed by its entry.
UniProt Q13421: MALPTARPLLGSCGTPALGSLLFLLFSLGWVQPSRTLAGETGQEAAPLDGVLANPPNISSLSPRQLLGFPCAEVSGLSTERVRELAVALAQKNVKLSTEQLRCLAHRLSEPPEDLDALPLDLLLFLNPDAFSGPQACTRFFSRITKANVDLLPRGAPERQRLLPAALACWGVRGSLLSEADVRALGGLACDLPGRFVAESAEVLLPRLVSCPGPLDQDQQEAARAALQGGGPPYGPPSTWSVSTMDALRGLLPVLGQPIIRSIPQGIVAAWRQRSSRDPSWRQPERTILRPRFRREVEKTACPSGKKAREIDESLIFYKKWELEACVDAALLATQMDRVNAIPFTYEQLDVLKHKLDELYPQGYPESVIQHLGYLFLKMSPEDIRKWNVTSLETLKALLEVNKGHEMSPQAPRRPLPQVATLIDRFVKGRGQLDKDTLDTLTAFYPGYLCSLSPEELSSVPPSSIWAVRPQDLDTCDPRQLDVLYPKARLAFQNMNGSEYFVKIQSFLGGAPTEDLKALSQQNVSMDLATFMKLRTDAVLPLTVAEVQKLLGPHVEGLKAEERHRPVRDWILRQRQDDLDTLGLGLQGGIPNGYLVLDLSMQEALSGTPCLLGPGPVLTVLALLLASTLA

Columns and labels:
[1] = target: Human Mesothelin/MSLN (296-580) (human) (UniProt Q13421); test: ELISA, MSLN coated on plate, scFv in 1/3 serial dilution, anti-strep HRP
[2] = target: Human Mesothelin/MSLN (296-580) (human) (UniProt Q13421); test: ELISA, MSLN coated on plate, same method as for the single mutants
[3] = target: Human Mesothelin/MSLN (296-580) (human) (UniProt Q13421); test: ELISA, MSLN coated on plate (refers back to Experimental Examples 2.2 and 2.3)
[4] = target: Human Mesothelin/MSLN (296-580) (human) (UniProt Q13421); test: ELISA, MSLN coated on plate (refers back to Experimental Example 2.2)

B2: MSLN34 D31L scFv (scFv, not shown: small tags and cut ends)
scFv: EVQLVESGGGLVQPGGSLRLSCAASGFTFSLYGMHWVRQAPGKGLEWVSSIYGSGGHTGYADSVKGRFTISRDNSKNTLYLQMNSLRAEDTAVYYCAKQHAYRYSYAFDVWGQGTLVTVSSGGGGSGGGGSGGGGSDIQMTQSPSSLSASVGDRVTITCRASQSISNWLNWYQQKPGKAPKLLIYATSSLQSGVPSRFSGSGSGTDFTLTISSLQPEDFATYYCQQSYSFPFTFGQGTKVEIK
binding [3]: binds
binding [4]: binds
binding [1]: binds

B4: MSLN34 D31L/S192R scFv (scFv, not shown: small tags and cut ends)
scFv: B2 scFv with S192R
binding [3]: binds
binding [2]: binds

Next, values leading:

binding [1]: binds
binding [2]: binds
B1: MSLN34 scFv (wild type) (scFv, not shown: large carriers)
scFv: B2 scFv with L31D

binding [3]: binds
binding [4]: binds
binding [1]: binds
B3: MSLN34 S192R scFv (scFv, not shown: small tags and cut ends)
scFv: B2 scFv with L31D, S192R

binding [1]: binds
B5: MSLN34 S192F scFv (scFv, not shown: small tags and cut ends)
scFv: B2 scFv with L31D, S192F
